Assay results taken from article PMC7001496.
No constants are given. Whether binding was seen depends on the method and setting. In cells and extracts the contact can be indirect. Some entries that bind do so weakly or less than the wild type. Where a sequence is shown, tags or fusion partners need not be part of it.

Chains of the proteins cited; added tags and fusions are not shown.
UniProt Q16665: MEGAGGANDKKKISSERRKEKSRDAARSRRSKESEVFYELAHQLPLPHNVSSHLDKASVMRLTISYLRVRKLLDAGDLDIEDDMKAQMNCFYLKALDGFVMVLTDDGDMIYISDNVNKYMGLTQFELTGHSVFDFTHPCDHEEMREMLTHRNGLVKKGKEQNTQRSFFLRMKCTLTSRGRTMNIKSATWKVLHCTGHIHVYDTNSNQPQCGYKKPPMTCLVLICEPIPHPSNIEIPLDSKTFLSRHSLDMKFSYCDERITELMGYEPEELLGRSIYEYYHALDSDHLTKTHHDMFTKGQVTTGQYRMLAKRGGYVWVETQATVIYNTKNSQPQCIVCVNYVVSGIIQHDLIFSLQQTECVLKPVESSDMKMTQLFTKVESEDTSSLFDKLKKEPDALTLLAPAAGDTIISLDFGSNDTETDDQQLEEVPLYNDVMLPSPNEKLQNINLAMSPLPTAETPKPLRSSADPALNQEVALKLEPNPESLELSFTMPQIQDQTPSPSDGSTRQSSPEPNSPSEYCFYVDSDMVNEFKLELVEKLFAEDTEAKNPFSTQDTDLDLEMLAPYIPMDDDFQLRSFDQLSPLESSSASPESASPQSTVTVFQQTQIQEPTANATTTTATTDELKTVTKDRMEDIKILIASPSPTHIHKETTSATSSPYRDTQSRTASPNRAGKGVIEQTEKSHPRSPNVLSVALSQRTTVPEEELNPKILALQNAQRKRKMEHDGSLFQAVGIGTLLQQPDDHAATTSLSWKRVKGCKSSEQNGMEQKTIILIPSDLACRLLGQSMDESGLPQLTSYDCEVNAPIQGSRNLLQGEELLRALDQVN

Biological target: hypoxia-inducible factor 1-alpha (HIF1α) (human (endogenous in HEK 293T)) (UniProt Q16665)
Assay: co-IP; 500 ug RIPA lysate of HEK 293T cells expressing GFP-CEP41, under normoxia or hypoxia; 2 ug anti-HIF1α or anti-CEP41 antibody with Dynabeads Protein G overnight at 4°C; washed 3 times with PBST (0.5% Tween-20); IgG as negative control

binding: binds
B1: GFP-CEP41 (centrosomal protein 41) (protein, UniProt Q9BYV8 1-373)
chain: MSLRRHIGNPEYLMKRIPQNPRYQHIKSRLDTGNSMTKYTEKLEEIKKNYRYKKDELFKRLKVTTFAQLIIQVASLSDQTLEVTAEEIQRLEDNDSAASDPDAETTARTNGKGNPGEQSPSPEQFINNAGAGDSSRSTLQSVISGVGELDLDKGPVKKAEPHTKDKPYPDCPFLLLDVRDRDSYQQCHIVGAYSYPIATLSRTMNPYSNDILEYKNAHGKIIILYDDDERLASQAATTMCERGFENLFMLSGGLKVLAQKFPEGLITGSLPASCQQALPPGSARKRSSPKGPPLPAENKWRFTPEDLKKIEYYLEEEQGPADHPSRLNQANSSGRESKVPGARSAQNLPGGGPASHSNPRSLSSGHLQGKPWK
